Laboratory results taken from US20160355464A1, “FUMARATE COMPOUNDS, PHARMACEUTICAL COMPOSITIONS THEREOF, AND METHODS OF USE” (priority 2015, published 2016).
Some entries share one result that the patent states for a list of compounds.

How the values were obtained:
[1] = Stability of fumarate compounds in PBS buffer; format: physicochemical; conditions: PBS 50 mM, pH 7.0 to 7.4, 20 to 30° C., 60 min, HPLC
[2] = system: porcine liver esterase; experiment: Hydrolysis of fumarate compounds in vitro; format: in vitro ADME; conditions: porcine liver esterase in PBS buffer pH 7.0 to 8.0, 20 to 30° C., ca. 24 h, HPLC

SMILES | stable in PBS buffer [1] [%] | converted to monoester fumarates and/or fumaric acid [2] [%]
O=C(/C=C/C(=O)OCC(=O)N1CCOCC1)OCC(=O)N1CCOCC1 [Compound 5, Bis(2-morpholino-2-oxo-ethyl) (E)-but-2-enedioate] | > 85 | > 30
CCN(CC)C(=O)COC(=O)/C=C/C(=O)OCC(=O)N(CC)CC [Compound 1, Bis[2-(diethylamino)-2-oxo-ethyl] (E)-but-2-enedioate] | > 85 | > 30
COCCNC(=O)COC(=O)/C=C/C(=O)OCC(=O)NCCOC [Compound 8, Bis[2-(2-methoxyethylamino)-2-oxo-ethyl] (E)-but-2-enedioate] | > 85 | > 30
C[C@H](OC(=O)/C=C/C(=O)O[C@@H](C)C(=O)N(C)C)C(=O)N(C)C [Compound 10, Bis[(1S)-2-(dimethylamino)-1-methyl-2-oxo-ethyl] (E)-but-2-enedioate] | > 85 | > 30
CCN(CC)C(=O)[C@H](C)OC(=O)/C=C/C(=O)O[C@@H](C)C(=O)N(CC)CC [Compound 9, Bis[(1S)-2-(diethylamino)-1-methyl-2-oxo-ethyl] (E)-but-2-enedioate] | > 85 | > 30
COCCN(CCOC)C(=O)COC(=O)/C=C/C(=O)OCC(=O)N(CCOC)CCOC [Compound 3, Bis[2-[bis(2-methoxyethyl)amino]-2-oxo-ethyl] (E)-but-2-enedioate] | > 85 | > 30
O=C(/C=C/C(=O)OCC(=O)N1CCCCC1)OCC(=O)N1CCCCC1 [Compound 4, Bis[2-oxo-2-(1-piperidyl)ethyl] (E)-but-2-enedioate] | > 85 | > 30
CN(C)C(=O)COC(=O)/C=C/C(=O)OCC(=O)N(C)C [Compound 2, Bis[2-(dimethylamino)-2-oxo-ethyl] (E)-but-2-enedioate] | > 85 | > 30
CNC(=O)COC(=O)/C=C/C(=O)OCC(=O)NC [Compound 6, Bis[2-(methylamino)-2-oxo-ethyl] (E)-but-2-enedioate] | > 85 | > 30
CCNC(=O)COC(=O)/C=C/C(=O)OCC(=O)NCC [Compound 7, Bis[2-(ethylamino)-2-oxo-ethyl] (E)-but-2-enedioate] | > 85 | > 30
